Values of other authors in patent US20240166630A1, “INDOLE DERIVATIVES AS SEROTONERGIC AGENTS USEFUL FOR THE TREATMENT OF DISORDERS RELATED THERETO” (Mindset Pharma Inc., priority 2021, published 2024).
Where two headings read alike, the source gives them in different places. At least one structure is not confirmed: it was looked up by name or label, or the drawing left a doubt. Some of these results come from one statement about several compounds together.

How the values were obtained:
[1] = cited from earlier work; for duration of action: consumed parenterally
[2] = cited from earlier work

| SMILES | duration of action [1] | abstinence rate ([2]; 12 months follow-up) [%] | abstinence rate ([2]; six months follow-up) [%] | duration of effects ([1]; psilocybin comparator) [h] |
| --- | --- | --- | --- | --- |
| COc1ccc2[nH]cc(CCN(C)C)c2c1 [Compound 5-MeO-DMT, 5-methoxy-N,N-dimethyltryptamine, reference compound] | less than 1 h |  |  |  |
| CN(C)CCc1c[nH]c2ccccc12 [DMT, N,N-dimethyltryptamine, reference compound] | less than 1 h |  |  |  |
| CN(C)CCc1c[nH]c2cccc(OP(=O)(O)O)c12 [psilocybin, 4-phosphoryloxy-N,N-dimethyltrypatmine] |  | 67 | 80 | 5 to 8 |
